Reference: paper PMC5066615
No constants are given. Whether binding was seen depends on the method and setting. Binding seen in cells or lysates may run through a third protein. Some results given as binding are weak or reduced against the parent protein; the word gives no strength. For some assays here: Sequences can lack the tags named with a protein.

Protein sequences, listed by entry. Tags and fused reporters are not part of them.
UniProt P04150: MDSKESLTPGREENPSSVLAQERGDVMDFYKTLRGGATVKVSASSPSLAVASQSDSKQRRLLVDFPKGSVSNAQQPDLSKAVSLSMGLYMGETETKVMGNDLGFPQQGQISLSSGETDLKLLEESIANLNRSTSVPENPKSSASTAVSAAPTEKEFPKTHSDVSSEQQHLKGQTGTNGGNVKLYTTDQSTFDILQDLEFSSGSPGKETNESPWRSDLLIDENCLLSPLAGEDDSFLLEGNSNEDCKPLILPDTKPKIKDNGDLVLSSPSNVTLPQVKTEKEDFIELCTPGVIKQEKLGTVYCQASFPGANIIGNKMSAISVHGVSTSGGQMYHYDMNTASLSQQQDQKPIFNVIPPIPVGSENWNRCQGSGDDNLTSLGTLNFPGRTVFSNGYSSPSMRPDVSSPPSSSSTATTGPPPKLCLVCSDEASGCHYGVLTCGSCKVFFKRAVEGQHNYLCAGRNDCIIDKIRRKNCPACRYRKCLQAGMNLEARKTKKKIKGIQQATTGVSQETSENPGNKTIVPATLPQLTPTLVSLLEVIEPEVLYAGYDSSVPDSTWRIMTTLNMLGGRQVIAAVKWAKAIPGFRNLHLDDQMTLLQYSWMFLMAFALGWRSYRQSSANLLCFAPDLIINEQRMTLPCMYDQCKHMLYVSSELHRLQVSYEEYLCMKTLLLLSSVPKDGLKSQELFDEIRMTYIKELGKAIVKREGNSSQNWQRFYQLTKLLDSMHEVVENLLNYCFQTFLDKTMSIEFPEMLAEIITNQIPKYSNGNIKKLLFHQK
UniProt P67809: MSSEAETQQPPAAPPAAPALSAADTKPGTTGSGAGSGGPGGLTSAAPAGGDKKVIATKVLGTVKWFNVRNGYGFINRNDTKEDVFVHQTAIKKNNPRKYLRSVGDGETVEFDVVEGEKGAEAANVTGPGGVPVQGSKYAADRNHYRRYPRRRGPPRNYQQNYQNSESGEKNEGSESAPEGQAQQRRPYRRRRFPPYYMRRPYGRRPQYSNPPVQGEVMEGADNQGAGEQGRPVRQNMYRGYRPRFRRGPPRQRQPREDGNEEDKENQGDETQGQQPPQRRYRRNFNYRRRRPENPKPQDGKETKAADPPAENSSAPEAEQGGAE

T1: Flag-HRSP12 wild type (UniProt P52758)
T1 sequence: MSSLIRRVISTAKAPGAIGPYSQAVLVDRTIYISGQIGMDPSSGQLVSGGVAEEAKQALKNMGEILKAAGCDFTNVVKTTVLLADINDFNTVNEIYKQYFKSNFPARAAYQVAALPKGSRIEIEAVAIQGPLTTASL

T2: MYC-UPF1^R wild type, Q92900
T2 chain: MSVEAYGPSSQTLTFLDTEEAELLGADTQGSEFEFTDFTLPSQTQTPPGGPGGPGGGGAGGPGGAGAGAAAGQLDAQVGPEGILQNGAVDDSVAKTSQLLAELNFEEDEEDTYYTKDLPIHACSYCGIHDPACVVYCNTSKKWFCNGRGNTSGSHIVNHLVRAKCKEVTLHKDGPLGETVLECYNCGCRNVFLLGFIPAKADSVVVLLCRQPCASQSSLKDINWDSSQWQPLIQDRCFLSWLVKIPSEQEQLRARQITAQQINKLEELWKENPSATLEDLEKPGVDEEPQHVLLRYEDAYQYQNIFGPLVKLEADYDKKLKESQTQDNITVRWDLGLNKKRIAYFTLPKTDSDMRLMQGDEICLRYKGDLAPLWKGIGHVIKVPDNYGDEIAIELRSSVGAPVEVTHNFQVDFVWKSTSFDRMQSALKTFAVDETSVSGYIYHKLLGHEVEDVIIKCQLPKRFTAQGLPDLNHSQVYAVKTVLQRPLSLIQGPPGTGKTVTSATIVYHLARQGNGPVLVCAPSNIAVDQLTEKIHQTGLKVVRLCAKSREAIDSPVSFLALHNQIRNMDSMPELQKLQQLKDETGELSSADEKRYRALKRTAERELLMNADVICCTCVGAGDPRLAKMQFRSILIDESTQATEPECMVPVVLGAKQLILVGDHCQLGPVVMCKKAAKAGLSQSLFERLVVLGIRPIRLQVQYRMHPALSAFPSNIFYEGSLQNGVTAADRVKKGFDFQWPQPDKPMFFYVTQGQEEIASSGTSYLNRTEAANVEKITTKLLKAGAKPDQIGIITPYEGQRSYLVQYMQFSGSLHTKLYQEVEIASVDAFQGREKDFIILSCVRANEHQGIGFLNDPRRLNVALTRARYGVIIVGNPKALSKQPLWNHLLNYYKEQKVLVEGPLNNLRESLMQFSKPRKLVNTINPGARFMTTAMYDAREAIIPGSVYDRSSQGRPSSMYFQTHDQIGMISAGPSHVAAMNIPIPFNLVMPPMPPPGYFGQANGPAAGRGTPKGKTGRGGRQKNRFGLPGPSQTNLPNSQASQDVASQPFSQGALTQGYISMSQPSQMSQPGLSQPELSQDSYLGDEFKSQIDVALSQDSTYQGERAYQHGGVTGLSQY

B1: MS2-HA-PNRC2, Q9NPJ4 1-139 (protein)
chain: MGGGERYNIPAPQSRNVSKNQQQLNRQKTKEQNSQMKIVHKKKERGHGYNSSAAAWQAMQNGGKNKNFPNNQSWNSSLSGPRLLFKSQANQNYAGAKFSEPPSPSVLPKPPSHWVPVSFNPSDKEIMTFQLKTLLKVQV
B2: upstream frameshift 1 (protein, UniProt Q92900 1-1129)
chain: MSVEAYGPSSQTLTFLDTEEAELLGADTQGSEFEFTDFTLPSQTQTPPGGPGGPGGGGAGGPGGAGAGAAAGQLDAQVGPEGILQNGAVDDSVAKTSQLLAELNFEEDEEDTYYTKDLPIHACSYCGIHDPACVVYCNTSKKWFCNGRGNTSGSHIVNHLVRAKCKEVTLHKDGPLGETVLECYNCGCRNVFLLGFIPAKADSVVVLLCRQPCASQSSLKDINWDSSQWQPLIQDRCFLSWLVKIPSEQEQLRARQITAQQINKLEELWKENPSATLEDLEKPGVDEEPQHVLLRYEDAYQYQNIFGPLVKLEADYDKKLKESQTQDNITVRWDLGLNKKRIAYFTLPKTDSGNEDLVIIWLRDMRLMQGDEICLRYKGDLAPLWKGIGHVIKVPDNYGDEIAIELRSSVGAPVEVTHNFQVDFVWKSTSFDRMQSALKTFAVDETSVSGYIYHKLLGHEVEDVIIKCQLPKRFTAQGLPDLNHSQVYAVKTVLQRPLSLIQGPPGTGKTVTSATIVYHLARQGNGPVLVCAPSNIAVDQLTEKIHQTGLKVVRLCAKSREAIDSPVSFLALHNQIRNMDSMPELQKLQQLKDETGELSSADEKRYRALKRTAERELLMNADVICCTCVGAGDPRLAKMQFRSILIDESTQATEPECMVPVVLGAKQLILVGDHCQLGPVVMCKKAAKAGLSQSLFERLVVLGIRPIRLQVQYRMHPALSAFPSNIFYEGSLQNGVTAADRVKKGFDFQWPQPDKPMFFYVTQGQEEIASSGTSYLNRTEAANVEKITTKLLKAGAKPDQIGIITPYEGQRSYLVQYMQFSGSLHTKLYQEVEIASVDAFQGREKDFIILSCVRANEHQGIGFLNDPRRLNVALTRARYGVIIVGNPKALSKQPLWNHLLNYYKEQKVLVEGPLNNLRESLMQFSKPRKLVNTINPGARFMTTAMYDAREAIIPGSVYDRSSQGRPSSMYFQTHDQIGMISAGPSHVAAMNIPIPFNLVMPPMPPPGYFGQANGPAAGRGTPKGKTGRGGRQKNRFGLPGPSQTNLPNSQASQDVASQPFSQGALTQGYISMSQPSQMSQPGLSQPELSQDSYLGDEFKSQIDVALSQDSTYQGERAYQHGGVTGLSQY

Tests used:
Flag-HRSP12 wild type = target: T1, Flag-HRSP12 wild type; test: co-IP; immunoprecipitation with α-Flag antibody from extracts of cells transiently expressing Flag-HRSP12 wild type or variants; endogenous partners detected by Western blot
[1] = target: glucocorticoid receptor (human (endogenous in HEK293T)) (UniProt P04150); test: co-IP; immunoprecipitation of endogenous GR with α-GR antibody (control rabbit IgG) from HEK293T extracts; cells treated with Dex for 1 h (also compared without Dex); extracts treated with RNase A; cells also depleted of YBX1, HRSP12, UPF1 or PNRC2 by siRNA; Western blot
[2] = target: T2, MYC-UPF1^R wild type, Q92900; test: co-IP; HEK293T cells cotransfected with MS2-HA-PNRC2 and MYC-UPF1^R wild type or Δ(1–72); immunoprecipitation with α-MYC antibody (control mouse IgG); Western blot; conditions: remark: other sources report otherwise

Molecule | binding (Flag-HRSP12 wild type) | binding [1] | binding [2]
Y-box-binding protein 1 (from UniProt P67809 1-324) | binds | – | –
proline-rich nuclear receptor coregulatory protein 2 (from UniProt Q9NPJ4 1-139) | – | binds | –
B1 | – | – | binds
B2 | binds | binds | –
